Reference: patent publication US5767254 (dated 1998)

Test: general procedure: Fmoc solid-phase peptide synthesis; Rink resin; BOP
Details: whole synthesis, based on resin, scale 0.85 g

## H2 N-Tyr-D-Cys-Gly-Phe-D-Cys-Ser(O-β-D-Glc)-Gly-CONH2
  isolated yield: 28%
